These are yes or no findings as the source states them, for the method shown. In cells and extracts the contact can be indirect. A result given as binding can be weak or reduced; the word gives no strength. Where a sequence is shown, tags or fusion partners need not be part of it.
Tests used:
[1] = target: T1, ELF5 with C-terminal FLAG tag (UniProt Q8VDK3); test: co-IP; nuclear extract of Rcho1 cells stably expressing FLAG-tagged SATB1 or ELF5 (20 mM Tris-HCl pH 7.5, 2 mM EDTA, 0.3 M NaCl, 0.5% Triton X-100); anti-FLAG (M2) magnetic beads overnight; 8 washes in 50 mM Hepes-NaOH pH 7.9, 0.25 M KCl, 0.1% Triton X-100; eluted with FLAG peptide; Western blot
T1 sequence: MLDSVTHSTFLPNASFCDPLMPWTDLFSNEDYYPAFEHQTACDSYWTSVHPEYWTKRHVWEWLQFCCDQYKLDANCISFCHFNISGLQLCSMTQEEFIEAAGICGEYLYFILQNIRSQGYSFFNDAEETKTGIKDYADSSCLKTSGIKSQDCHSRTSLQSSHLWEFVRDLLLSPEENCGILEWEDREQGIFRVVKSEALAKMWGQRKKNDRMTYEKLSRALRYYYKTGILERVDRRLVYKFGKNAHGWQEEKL

[2] = target: T2, SATB1 with N-terminal FLAG Tag (UniProt Q60611); test: as above
T2 sequence: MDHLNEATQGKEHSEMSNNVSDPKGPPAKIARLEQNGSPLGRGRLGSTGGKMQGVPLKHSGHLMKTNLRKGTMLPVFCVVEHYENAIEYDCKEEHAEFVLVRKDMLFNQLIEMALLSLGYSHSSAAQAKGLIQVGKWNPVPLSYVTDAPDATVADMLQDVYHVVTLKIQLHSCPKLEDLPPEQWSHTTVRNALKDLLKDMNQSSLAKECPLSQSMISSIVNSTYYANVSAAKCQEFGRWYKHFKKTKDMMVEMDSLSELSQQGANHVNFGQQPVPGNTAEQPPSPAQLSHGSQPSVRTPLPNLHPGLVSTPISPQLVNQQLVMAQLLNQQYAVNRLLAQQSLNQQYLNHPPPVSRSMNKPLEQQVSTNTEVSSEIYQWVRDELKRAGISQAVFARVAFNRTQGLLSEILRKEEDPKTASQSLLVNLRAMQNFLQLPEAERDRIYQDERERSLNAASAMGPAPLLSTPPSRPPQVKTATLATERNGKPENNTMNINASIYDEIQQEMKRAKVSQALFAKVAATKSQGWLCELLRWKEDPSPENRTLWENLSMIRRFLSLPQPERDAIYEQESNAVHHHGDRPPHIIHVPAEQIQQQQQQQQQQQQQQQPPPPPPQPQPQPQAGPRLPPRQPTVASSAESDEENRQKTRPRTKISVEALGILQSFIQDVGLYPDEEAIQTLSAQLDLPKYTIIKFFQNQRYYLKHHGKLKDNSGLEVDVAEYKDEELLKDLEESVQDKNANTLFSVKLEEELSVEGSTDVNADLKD

binding [1]	binding [2]	Substance
binds	–	SATB1 (rat (endogenous in Rcho1))
–	binds	ELF5 (rat (endogenous in Rcho1))

— publication PMC9795202
